At least one compound was matched to its structure with a doubt left.
Biological target: T1, sigma receptors (Rattus norvegicus, UniProt Q9R0C9)
T1 construct: a preparation of rat brain membrane; from tissue; host or cells: rat brain membranes
Test: In vitro binding to sigma receptors with (+)[^3 H]SKF10.047
Details: ratio to haloperidol, second series, rat brain membranes

Protein sequences, listed by entry. Tags and fused reporters are not part of them.
UniProt Q9R0C9, whole entry: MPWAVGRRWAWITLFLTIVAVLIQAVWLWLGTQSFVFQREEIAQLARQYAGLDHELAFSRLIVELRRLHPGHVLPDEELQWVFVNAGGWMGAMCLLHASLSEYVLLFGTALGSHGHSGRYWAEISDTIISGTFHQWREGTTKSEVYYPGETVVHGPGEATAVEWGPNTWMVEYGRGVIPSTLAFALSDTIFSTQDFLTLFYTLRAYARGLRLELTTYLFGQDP

C(=C\c1ccccc1)/CC1CCCN1CCC1CC1 (stereo not shown) [Example 1.5, (E)-2-cinnamyl-1-cyclopropylethylpyrrolidine]
IC50, haloperidol / IC50, example: 0.8
